Results: PubChem BioAssay AID493014 (National Center for Advancing Translational Sciences (NCATS), 2011)
The list shows a part of the results. These are further read-outs of the screen, such as a control signal, another cell line or another target. No call is given for them. The list favours compounds with an active or inconclusive main result. The note in brackets gives the kind of curve behind each potency; many fits are weak.

Experiment: qHTS Assay to Find Inhibitors of Chronic Active B-Cell Receptor Signaling
Conditions: ABC-DLBCL IkBa-CBG/CBR reporter, luminescence ratio (green luciferase fused to IkBa over red control in TMD8 lymphoma cells), 4 h
Outline: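 TMD8 ABC-DLBCL cells carrying doxycycline-inducible green luciferase fused to IkappaBalpha plus unfused red luciferase were exposed to compounds (up to 46 uM) for 4 hrs at 37C. Activity came from the overlap-corrected green/red luminescence ratio.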

[1] = measured here: CBR red luminescence, cell number
[2] = measured here: IkBa-CBG green luminescence

Row | SMILES | AC50 [1] | AC50 [2]
1 | COc1cccc(-n2c(CNc3ccc(F)cc3)nnc2SCC(N)=O)c1 | 2.31 µM [falling, partial curve, poor fit] | –
2 | O=C(COC(=O)c1ccc(NS(=O)(=O)c2cccs2)cc1O)NC1CCCCC1 | 0.708 µM [falling, full curve] | –
3 | O=C(CSc1nnc(CCCN2C(=O)c3cccc4cccc(c34)C2=O)n1-c1ccccc1)NCCCN1CCOCC1 | 5.17 µM [rising, partial curve, poor fit] | –
4 | CC(/C=C\C=C\c1ccccc1)=N\NC(=O)c1cncc(Br)c1 | 12.6 µM [falling, partial curve] | –
5 | O=C(Nc1nnc(-c2ccccc2Cl)o1)c1ccc(S(=O)(=O)N2CCCCCC2)cc1 | 1.12 µM [falling, full curve, poor fit] | –
6 | O=C(Nc1nc2c(s1)CCCC2)c1cc2n(n1)C(C(F)(F)F)CC(C1CC1)N2 (configuration not stated) | 7.94 µM [rising, partial curve, poor fit] | –
7 | Cc1nc(SCc2nc3c(F)cccc3[nH]2)c2oc3ccccc3c2n1 | 0.00411 µM [rising, full curve, poor fit] | –
8 | Cn1c(=O)c2c(nc(Oc3ccccc3Br)n2C)n(C)c1=O | 7.08 µM [falling, partial curve, poor fit] | –
9 | Cn1c(=NC(=O)COc2ccccc2)sc2cc(F)cc(F)c21 | 0.708 µM [rising, full curve, poor fit] | –
10 | Cc1onc(-c2ccccc2)c1C(=O)N/N=C/c1ccccc1OC(C)C | 35.5 µM [falling, single point] | –
11 | CCN1CCN(c2nc(N)c([N+](=O)[O-])c(Nc3ccc(C)cc3)n2)CC1 | 3.66 µM [rising, full curve, poor fit] | –
12 | O=C(N/N=C/c1ccc[nH]1)c1ccccc1O | 3.16 µM [falling, full curve, poor fit] | –
13 | O=S(=O)(NCC(c1ccccc1)N1CCNCC1)c1ccc(Cl)cc1 (configuration not stated) | 11.2 µM [falling, partial curve] | –
14 | O=C(c1cc2cc(F)ccc2[nH]1)N1CCN(Cc2ccc3c(c2)OCO3)CC1 | 1.26 µM [falling, full curve, poor fit] | –
15 | CCN(CC)CCCn1c2c(c(SCC(=O)Nc3ccc(C)c(F)c3)nc1=O)CCC2 | 16.4 µM [falling, single point] | –
16 | O=C(NNS(=O)(=O)c1ccccc1[N+](=O)[O-])c1cc2ccccc2cc1O | 8.91 µM [falling, single point] | –
17 | N#Cc1ccccc1S(=O)(=O)N1CCN(CC(O)CN2CCOCC2)CC1 (configuration not stated) | 18.4 µM [rising, partial curve, poor fit] | –
18 | CC(C)(C)c1nnc(N/N=C/c2ccccc2)n(N)c1=O | 25.9 µM [rising, single point] | –
19 | CC(C)(C)c1ccc(S(=O)(=O)/N=C2\C=C(NS(=O)(=O)c3ccccc3)C(=O)c3ccccc32)cc1 | 17.8 µM [falling, single point] | –
20 | O=c1cc(-c2ccccc2)[nH]c2cc(F)ccc12 | 20.6 µM [rising, partial curve] | 29.1 µM [falling, single point]
21 | CCOC(=O)c1c(-c2ccc(C)cc2)csc1/N=C(\C)C1=C(O)c2ccccc2C1=O | 6.31 µM [rising, single point] | –

Row | SMILES | AC50 [1] | AC50 [2]
22 | Cc1cc(N/N=C2/CCCc3ccccc32)nc2ccccc12 | 11.2 µM [rising, partial curve] | 31.6 µM [falling, single point]
23 | CCc1ccc(NC(=O)N(Cc2cccnc2)Cc2ccco2)cc1 | 29.1 µM [rising, single point] | –
24 | Cc1ccc(Sc2ccc(NC(=O)CCl)cc2)c(C)c1 | 23.1 µM [falling, single point] | 20.6 µM [falling, single point]
25 | O=C(Nc1ccccc1OC(F)F)c1cccc(S(=O)(=O)N2CCCC2)c1 | 25.1 µM [falling, single point] | –
26 | Cc1ccc(OCCOc2cccc(/C=N/NC(N)=O)c2)cc1 | 0.447 µM [rising, full curve, poor fit] | –
27 | CCc1ccc(/C=C2\SC(=S)N(CCCC(=O)Nc3ccc(C(=O)O)cc3)C2=O)cc1 | 0.891 µM [falling, partial curve, poor fit] | –
28 | CCOC(=O)C1=C(C)N(C)C(C)=C(C(=O)OCC)C1c1ccccn1 | 23.1 µM [rising, single point] | –
29 | NNC(=O)CNC(=O)c1ccccc1F | 25.9 µM [falling, single point] | –
30 | CCN=C(NC#N)SCc1c(F)cccc1Cl | 29.1 µM [rising, single point] | –
31 | COc1ccc2c(c1OC)C(=O)N1C2SC(C)(C)[C@H]1C(=O)NC(C)C (some centres not stated) | 17.8 µM [rising, single point] | –
32 | COC(=O)c1ccc(C2NC(=S)N(c3ccccc3)C(C)=C2C(=O)Nc2ccccc2OC)cc1 (configuration not stated) | 6.51 µM [falling, partial curve, poor fit] | –
33 | Cc1ccc(S(=O)(=O)N(C)C)cc1-n1c(SCC(=O)Nc2ccccc2)nc2ccccc2c1=O | 0.731 µM [rising, full curve, poor fit] | –
34 | Cc1cccc(C)c1NC(=O)C(NC=O)c1ccc(Cl)cc1 (configuration not stated) | 29.1 µM [falling, single point] | –
35 | O=c1oc(-c2cccnc2)nc2ccccc12 | 11.2 µM [falling, partial curve, poor fit] | –
36 | COc1cccc(-c2nc(CS(=O)(=O)CC(=O)NC3CCCc4ccccc43)c(C)o2)c1 (configuration not stated) | 14.6 µM [rising, single point] | –
37 | O=C(NNC(=O)c1cc2ccccc2oc1=O)c1ccccc1 | 2.24 µM [falling, full curve, poor fit] | –
38 | COc1ccccc1NCC(=O)N/N=C/c1c(O)ccc2ccccc12 | 20 µM [falling, single point] | –
39 | COC(=O)c1ccc(/C=N/NC(=O)c2cccc(F)c2)cc1 | 23.1 µM [falling, single point] | –
40 | c1ccc(CCNc2ncnc3c2cnn3-c2ccccc2)cc1 | 16.4 µM [falling, single point] | –
41 | COC(=O)CCC(=O)CN | 14.6 µM [rising, partial curve, poor fit] | –
42 | COC(=O)c1ccc2nc(NC(=O)COC(=O)CSc3nc(C)cc(C)n3)sc2c1 | 4.11 µM [rising, partial curve] | –

Row | SMILES | AC50 [1] | AC50 [2]
43 | CCC1CCC/C1=N\NC(=O)c1ccoc1C (configuration not stated) | 3.98 µM [falling, partial curve] | –
44 | O=c1c2ccccc2nc(N/N=C/c2c(O)ccc3ccccc23)n1O | 2.91 µM [falling, full curve] | –
45 | Cc1ccc(CNC(=O)C(Cc2ccccc2)NS(=O)(=O)c2ccc(Br)s2)cc1 (configuration not stated) | 29.1 µM [falling, single point] | –
46 | CC1Sc2ccc(C(=O)OCc3ccccc3Cl)cc2NC1=O (configuration not stated) | 0.13 µM [rising, full curve, poor fit] | –
47 | Cc1nn(Cc2ccccc2)c2c1C(c1ccccc1)C(C#N)=C(N)O2 (configuration not stated) | 11.6 µM [falling, partial curve] | 25.9 µM [falling, partial curve, poor fit]
48 | CC(C)C[C@H]1CN=C(Nc2ccccc2)N1CC1CCC(C)CC1 (some centres not stated) | 10 µM [falling, partial curve, poor fit] | –
49 | CCOC(=O)c1nc2ccccc2c(C)c1C | 12.6 µM [rising, partial curve, poor fit] | –
50 | O=C(/C=C/c1ccccc1)c1cc(Br)ccc(=O)c1O | 5.17 µM [falling, full curve] | –
51 | c1ccc(CNc2ccc3ccccc3n2)nc1 | 22.4 µM [falling, single point] | –
52 | COCCNc1nnc(SC(C)C(=O)Nc2ccc(-c3nc4ccc(C)cc4s3)cc2)s1 (configuration not stated) | 0.092 µM [rising, full curve, poor fit] | –
53 | COc1ccc2sc(-c3ccccc3OC)c(-c3ccc(OCCN(C)C)cc3)c2c1 | 29.1 µM [falling, single point] | –
54 | CCCCN(CCCC)C(=S)NC(=O)c1ccccc1Cl | 1.84 µM [rising, partial curve, poor fit] | –
55 | COc1ccc(C(=O)C(CCC(CNC(C)(C)C)C(=O)c2ccc(OC)cc2)CNC(C)(C)C)cc1 (configuration not stated) | 1.3 µM [falling, full curve] | –
56 | CC(C)(C)c1ccc(C(=O)CSc2ncn[nH]2)cc1 | 29.1 µM [falling, single point] | –
57 | O=C(/C=C/c1ccc(Cl)cc1Cl)NCCSCc1ccccc1 | 29.1 µM [falling, single point] | –
58 | CC(=O)CC1(OC(C)=O)C(=O)N(C)c2ccccc21 (configuration not stated) | 11.2 µM [falling, partial curve, poor fit] | –
59 | O=C(Nc1ncccc1O)c1ccc(Oc2ccccc2)cc1 | 3.98 µM [falling, full curve] | –
60 | O=C(O)c1cccc(NS(=O)(=O)c2cccc3cccnc23)c1 | 6.51 µM [rising, partial curve, poor fit] | –
61 | O=C(Cc1ccccc1)NNC(=S)Nc1ccc(Cl)cc1 | 29.1 µM [rising, partial curve, poor fit] | –
62 | Cc1cc(NC(=O)c2sc3ccccc3c2O)no1 | 6.31 µM [falling, partial curve] | –
63 | C=CC[C@@H](CC(=O)N(CCO)Cc1ccccc1)C(=O)N[C@H](COC(=O)[C@@H](CC=C)Cc1ccc(F)cc1)C(C)(C)C | 25.9 µM [falling, single point] | –

Sorted by length of the SMILES (descending): part of the list above.
Row | SMILES | AC50 [1] | AC50 [2]
48 | CC(C)C[C@H]1CN=C(Nc2ccccc2)N1CC1CCC(C)CC1 (some centres not stated) | 10 µM [falling, partial curve, poor fit] | –
43 | CCC1CCC/C1=N\NC(=O)c1ccoc1C (configuration not stated) | 3.98 µM [falling, partial curve] | –
49 | CCOC(=O)c1nc2ccccc2c(C)c1C | 12.6 µM [rising, partial curve, poor fit] | –
